Results reported in PubChem BioAssay AID1259354 (Paczesny and Yang Labs, IUPUI and University of Michigan, 2018).
About 1,800 (2.3%) of roughly 78,000 compounds were called active. Inconclusive means that the source gave no clear call. Such entries were picked first, then a sample of the others. No stated cut-off is given here; in the data, active means inhibition above about 30%; inconclusive means mostly about 10% to 28%; inactive means weaker than that.

Chains of the proteins cited; added tags and fusions are not shown. Lines headed by an entry give the natural chain unless they say otherwise; changes in a name come on top.
UniProt Q01638: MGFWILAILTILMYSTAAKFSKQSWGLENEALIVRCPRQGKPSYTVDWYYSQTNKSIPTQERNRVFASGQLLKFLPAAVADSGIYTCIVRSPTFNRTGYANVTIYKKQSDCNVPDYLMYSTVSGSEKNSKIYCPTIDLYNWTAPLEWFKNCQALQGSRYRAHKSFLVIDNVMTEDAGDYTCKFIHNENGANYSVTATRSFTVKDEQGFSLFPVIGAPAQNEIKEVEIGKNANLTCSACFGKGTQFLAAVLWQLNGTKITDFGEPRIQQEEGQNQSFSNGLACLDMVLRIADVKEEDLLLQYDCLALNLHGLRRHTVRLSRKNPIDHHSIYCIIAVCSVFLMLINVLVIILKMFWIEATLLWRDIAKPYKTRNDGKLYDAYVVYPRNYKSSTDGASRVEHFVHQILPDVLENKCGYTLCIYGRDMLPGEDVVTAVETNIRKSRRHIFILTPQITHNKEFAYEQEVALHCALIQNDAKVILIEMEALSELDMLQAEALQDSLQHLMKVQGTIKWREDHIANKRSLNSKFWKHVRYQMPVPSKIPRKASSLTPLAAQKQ

target: Interleukin-1 receptor-like 1 (Homo sapiens) (UniProt Q01638); experiment: blocks human ST2 binding to IL-33, primary screen, biochemical, AlphaLISA (AID 1259354); details: AlphaLISA ST2-Fc/biotin-IL-33 interaction, 1 h; at 17 µM, hits give high values

Compound | inhibition
Cc1ccccc1C(=O)Nc1c(-c2cccs2)nc2ccccn12 | inactive
O=C(c1ccc2c(c1)N(Cc1ccccc1)C(=O)c1ccccc1S2)N1CCCC1 | inactive
Cc1nnc2c(NCC3CCCO3)nc3ccccc3n12 (configuration not stated) | inactive
C[C@@H]1O[C@@H](Nc2ccc(Cl)cc2[N+](=O)[O-])[C@H](O)[C@H](O)[C@H]1O | inactive
C[C@H]1[C@@H]2[C@@H](O)C([C@H](C)C(=O)N(C)Cc3ccccc3)CC[C@@]2(C)CC[C@@H]1NC(=O)Cc1ccccc1 (some centres not stated) | inconclusive: 25%
Cc1cc2ncn(S(=O)(=O)c3ccc(Cl)c(C)c3)c2cc1C | inconclusive: 12%
O=C1C=CC(=NOC(=O)c2ccc([N+](=O)[O-])cc2)C=C1 | inconclusive: 13%
COc1ccccc1N1CCN([C@@H]2[C@H](O)[C@H](CO)O[C@@H]2CNS(=O)(=O)c2ccc(F)cc2)CC1 | inconclusive: 13%
C=CC1C(O[C@@H]2O[C@H](CO)[C@@H](O)[C@H](O)[C@H]2O)OC=C(C(=O)OC)C1CC(=O)O (some centres not stated) | inconclusive: 20%
COc1cccc(OCCOc2ccc(Cl)cc2/C=C2\C(=O)NN(c3ccccc3)C2=O)c1 | inconclusive: 21%
Cc1nc2c(c(=O)[nH]1)CCN(C(=O)c1cccc(C#CC(C)(C)O)c1)C2 | inconclusive: 12%
CCN1CCC(NC2c3ccccc3-c3ccccc32)CC1 | inactive
Cc1cc2c(cc1S(=O)(=O)N1CCCC1C(=O)NCc1ccc(Cl)cc1)OCC(=O)N2 (configuration not stated) | inactive
Cc1nnc(Sc2cc(C(=O)NCCCN3CCC(C)CC3)c3ccccc3n2)s1 | inconclusive: 20%
CCOC(=O)COc1ccc2c(-c3ccccc3)cc(=O)oc2c1C | inconclusive: 13%
COc1cccc2c1OCC(CN(C)CC1CCN(Cc3ccc(C)o3)CC1)=C2 | inactive
CCOC(=O)CCNC(=O)c1ccc2oc(-c3cccc(F)c3)nc2c1 | inconclusive: 17%
CCOC(=O)c1nn(-c2ccc(OC)cc2)cc1O | inconclusive: 13%
C=CCC1=C[C@]2(OC)[C@H](C)[C@@H](c3ccc4c(c3)OCO4)O[C@]2(OC)CC1=O | inconclusive: 10%
COc1ccc2nc(C3=C(O)c4ccccc4C3=O)sc2c1 | inconclusive: 20%
Cc1ccsc1CN(C)C(=O)c1cccs1 | inconclusive: 11%
COc1ccc2cc(C3CN(S(=O)(=O)N(C)C)CCO3)ccc2c1 (configuration not stated) | inconclusive: 15%
Oc1ccc(O)c(Cc2nc3ccccc3[nH]2)c1 | inconclusive: 22%

Five compounds from above, ordered by SMILES length, low to high.
Compound | inhibition
Cc1nnc2c(NCC3CCCO3)nc3ccccc3n12 (configuration not stated) | inactive
O=C1C=CC(=NOC(=O)c2ccc([N+](=O)[O-])cc2)C=C1 | inconclusive: 13%
COc1cccc2c1OCC(CN(C)CC1CCN(Cc3ccc(C)o3)CC1)=C2 | inactive
C=CC1C(O[C@@H]2O[C@H](CO)[C@@H](O)[C@H](O)[C@H]2O)OC=C(C(=O)OC)C1CC(=O)O (some centres not stated) | inconclusive: 20%
C[C@H]1[C@@H]2[C@@H](O)C([C@H](C)C(=O)N(C)Cc3ccccc3)CC[C@@]2(C)CC[C@@H]1NC(=O)Cc1ccccc1 (some centres not stated) | inconclusive: 25%

Next results

Compound | inhibition
O=C(Cn1cnc2c(cnn2-c2ccccc2)c1=O)Nc1ccc2c(c1)OCO2 | inconclusive: 18%
CCC(=O)Nc1cc(Cl)ccc1C(=O)N(C)Cc1nccn1CC | inconclusive: 12%
Cc1ccc2nc(NC(C)C(=O)O)nc(-c3ccccc3)c2c1 (configuration not stated) | inactive
CC1CCCN(S(=O)(=O)c2cccc3cccnc23)C1 (configuration not stated) | inconclusive: 15%
CN(CCc1cn[nH]c1)C(=O)c1csc2nc(-c3ccc(C(F)(F)F)cc3)cn12 | inconclusive: 17%
O=C(NCCc1ccccc1)C1CCN(c2ccc(-c3cccs3)nn2)CC1 | inactive
O=C(Nc1cccc([N+](=O)[O-])c1)c1ccccc1Cl | inactive
O=C(CSc1cccc2cccnc12)N1CCc2ccccc21 | inactive
O=C(CCCOc1ccccc1)Nc1cc(Cl)c(Cl)cc1Cl | inactive
O=C(COc1cccnc1)NCc1cccnc1N1CCc2ccccc2C1 | inactive
COc1ccc(-c2ccc(CCC(=O)O)n2-c2ccc(Br)cc2)cc1 | inconclusive: 22%
COC(=O)c1c(NC(=O)c2ccc(Cl)s2)sc2c1CCN(C(C)C)C2 | inconclusive: 16%
O=[N+]([O-])c1ccc(N2CCN(c3ccccc3)CC2)c(S(=O)(=O)N2CCCCC2)c1 | active: 50%
Cc1nnc(Sc2cc(C(=O)NCCCOC(C)C)c3ccccc3n2)s1 | inconclusive: 17%
COc1ccc(-n2nc(C(=O)N3CCOCC3)c3c4ccccc4n(C)c3c2=O)cc1Cl | inconclusive: 24%
O=C1NC(C(=O)NCc2cccnc2N2CCCCCCC2)CO1 (configuration not stated) | inactive
CCOC(=O)c1c(NC(=O)COc2ccc3c(C)cc(=O)oc3c2)sc2c1CCC2 | inactive
CCN(CC)CCN(C)C/C=C/c1ccccc1 | inconclusive: 10%
CS(=O)(=O)N1CCN(C(=O)c2cccs2)[C@@H](C(=O)N[C@@H](CC2CCCCC2)C(N)=O)C1 | inactive
CCc1ccc(NS(=O)(=O)c2ccc(OC)c(OC)c2)cc1 | inactive
CN(C)c1nc2c(c(=O)n(Cc3ccccc3)c(=O)n2C)n1Cc1ccccc1 | inconclusive: 29%
O=S1(=O)N=C(CCNCCC2=NS(=O)(=O)c3ccccc3N2)Nc2ccccc21 | inconclusive: 13%
CC(=O)OC1C(=O)[C@]2(C)C(CC[C@@]3(C)[C@H](c4ccoc4)OC(=O)[C@H]4O[C@]432)[C@@]23COC(=O)C[C@@H]2OC(C)(C)C13 (some centres not stated) | inconclusive: 11%

Compound | inhibition
O=C(NCCCO)Nc1ccc(Cl)c(Cl)c1 | inconclusive: 20%
Cc1c(O)cccc1C(=O)N1CCc2c(nc(-c3cccnc3)[nH]c2=O)C1 | inconclusive: 21%
O=C(C(F)F)N1CCN(C(=O)C(F)F)CC1 | inconclusive: 13%
COc1cc(OC)c(C2Nc3ccccc3-c3nnc(SC)nc3O2)c(OC)c1 (configuration not stated) | inactive
NC(=O)[C@H](Cc1ccccc1)N1CC[C@H]2CN(C(=O)c3ccccc3)CC[C@H]2CC1=O | inconclusive: 11%
COc1ccc(/C(N)=N\OC(=O)c2ccc3c(c2)OCO3)cc1OC | inactive
Cc1ccccc1-n1ncc(C(C)NC(=O)Cc2ccc(F)cc2Cl)c1C (configuration not stated) | inconclusive: 11%
O=C(Nc1cccc(Cl)c1)c1cccc(N2C(=O)C=CC2=O)c1 | inactive
CCc1cnc(C)nc1NCCN1CCCOC1=O | inconclusive: 11%
O=C(Nc1ccccc1-c1nc2ccccc2[nH]1)c1cc(Cl)ccc1[N+](=O)[O-] | inconclusive: 21%
O=C(Nc1ccc(F)cc1)c1ccco1 | inconclusive: 16%
CN(C)Cc1ccccc1-c1ccc2n(c1=O)C[C@H]1C[C@@H]2CN(Cc2cccc(C#N)c2)C1 | inconclusive: 11%
N#Cc1nc(-c2ccccc2)oc1N1CCOCC1 | inconclusive: 12%
O=C(c1ccccn1)N1C[C@@H]2C[C@H](C1)c1ccc(NS(=O)(=O)Cc3ccccc3)c(=O)n1C2 | inconclusive: 26%
N=c1ncn(Cc2ccccc2)c2nc(SCCOc3ccccc3)[nH]c12 | inconclusive: 11%
Clc1ccc(-c2nc3cnccn3c2Nc2ccc3c(c2)OCCO3)s1 | inactive
COc1ccc(N(C)C(=O)C2(S(=O)(=O)c3ccc(Cl)cc3)CC2)cc1 | inconclusive: 15%
c1ccc(N2CCN(Cc3ccco3)CC2)cc1 | inactive
CC(=O)N[C@H]1CC[C@]2(C)CC[C@@H]([C@H](C)C(=O)NC3CC3)[C@H](O)[C@H]2[C@@H]1C | inconclusive: 12%
CCCCN(C)C(=O)c1cc2cc3cc(OC)ccc3nc2s1 | inconclusive: 19%
O=C(NC[C@H]1O[C@@H](CO)[C@@H](O)[C@H]1N1CCOCC1)Nc1ccc(F)cc1F | inconclusive: 18%
CN(C)S(=O)(=O)NCCc1ccccc1 | inconclusive: 17%
COc1ccc(S(=O)(=O)Cc2ccc(C(=O)NC3CCCCCC3)o2)cc1 | inconclusive: 13%

Compound | inhibition
Cc1ccc(-n2ncc3c([N+](=O)[O-])cc([N+](=O)[O-])cc32)cc1 | active: 62%
Cc1cc(Oc2ccccc2)nc(Oc2ccc(=O)[nH]n2)n1 | inactive
CC(=O)N1CCN([C@H]2[C@@H]3OC[C@@H](O3)[C@@H](NC(=O)NC3CCCCC3)[C@@H]2O)CC1 | inconclusive: 16%
O=c1cc(-c2ccc(O)cc2)oc2cc(O)cc(O)c12 | inconclusive: 17%
COc1ccc(N2CCN(c3ncnc(N)c3[N+](=O)[O-])CC2)cc1 | inconclusive: 15%
CCc1ccc(CN2C(=O)CCC2(C)C(=O)NC2CCCC2)cc1 (configuration not stated) | inactive
COc1ccc2nc(NC3=NCC(=O)N3)nc(C)c2c1 | inconclusive: 28%
Cc1nc2ccc(C(=O)N(Cc3noc(C)n3)C(C)C)cc2[nH]1 | inconclusive: 12%
CCCCN(C)C(=O)CCC(=O)Nc1ccc2nc(N3CCOCC3)cc(C)c2c1 | inconclusive: 12%
CC1=CC(=O)C=C(C)C1=NS(=O)(=O)c1ccccc1 | inconclusive: 12%
c1ccc(OCc2noc(-c3ccc(NCc4ccon4)nc3)n2)cc1 | inconclusive: 17%
CC(=O)c1cc(C#N)c(SCc2ccccc2F)nc1C | inconclusive: 15%
CC1=C(C(=O)OC2CCCCC2)C(c2ccc(Br)cc2)n2ncnc2N1 (configuration not stated) | inactive
CCOc1ncccc1CNc1nc(-c2cccnc2)nc2c1CCNC2 | inconclusive: 12%
O=C1CC(NCCCC(F)(F)F)CN1CCc1cccc(Cl)c1 (configuration not stated) | inconclusive: 14%
CCOC(=O)c1ccc(N2C(=O)C(=O)C(=C(O)c3ccc(OC)cc3)C2c2ccccc2)cc1 (configuration not stated) | inactive
O=C(CC1COCCN1)NCC1(c2cccc(F)c2)CCOCC1 (configuration not stated) | inactive
O=C1CCCC2=C1C(c1ccc(Br)cc1)Nc1ccc(C(=O)c3ccccc3)cc1N2 (configuration not stated) | inconclusive: 24%
Cc1cc(C)cc(NC(=S)N[C@H]2CO[C@H]3[C@@H]2OC[C@H]3OCC(N)=O)c1 | inconclusive: 13%
CC1(C)CC(CC(=O)NN)(c2ccccc2)CCO1 (configuration not stated) | inactive
CNC(=O)CC(C)N(C)Cc1cccc2nonc12 (configuration not stated) | inactive
O=C(CN1C(=O)/C(=C\c2ccc(C(F)(F)F)cc2)Sc2ccccc21)N1CCOCC1 | inconclusive: 14%
C[C@@H]1C(=O)O[C@H]2[C@H]1CC[C@@]1(C)Cc3sc(Nc4ccc(C(=O)O)cc4)nc3[C@@H](C)[C@H]21 | active: 85%
